# Assay results reported in publication PMC7782499, “Progerinin, an optimized progerin-lamin A binding inhibitor, ameliorates premature senescence phenotypes of Hutchinson-Gilford progeria syndrome” (Communications Biology, 2021).
# Where “and” joins values, the source holds several entries; their conditions need not be identical. Equal values may be shown once. The source gives many values for each of these; only a part stands here.
# Tested on: Lmna G609G/G609G mouse
# Assay: Body weight of Lmna G609G/G609G mice (ratio, week 4 = 1)
# Type: in vivo
# Text: Fig. 3 In vivo favorable effect of SLC-D011. A Gross morphology of Lmna^G609G/G609G mice (10 weeks old) was ameliorated after injection with SLC-D011. At the same age, the experimental group (D011) of mice were larger than vehicle-injected control (Con) subjects regardless of gender. B, C SLC-D011 increases body weight B and extends life span C of Lmna^G609G/G609G progeria model mouse (Con: n = 8; SLC-D011: n = 8). Compared with 14.8 weeks of average (ave) life span with maximum (max) life span of 15.5 weeks, 20 mg/kg of intraperitoneal (i.p) injection (twice a week) of SLC-D011 could extend the life span upto 19 weeks (max = 21 weeks). Lmna^G609G/G609G mice were injected with SLC-D011 from age of 5-week old, *p < 0.05. D Gross morphology of SLC-D011 injected Lmna^G609G/+ mouse. […] E SLC-D011 increases body weights of Lmna^G609G/+ mice (Con: n = 10; SLC-D011: n = 11), *p < 0.05. F Favorable effect of SLC-D011 on life span of Lmna^G609G/+ mice. Compared with vehicle-injected control group (ave = 46.7 weeks and max = 48 weeks), SLC-D011 treatment obviously extended the average life span to 63 weeks (max = 64 weeks). The injection was started from 32 weeks old, **p < 0.001. “Con” means vehicle (a solvent composed of DMSO and PBS)-injected mouse group. TEXT PRINTED IN THE PICTURE: (C) D011: Kaplan-Meier survival curve in Lmna^G609G/G609G: Ave=19; Kaplan-Meier survival curve in Lmna^G609G/G609G: Max=21 | (F) D011: Kaplan-Meier survival curve in Lmna^G609G/+: Ave=63; Kaplan-Meier survival curve in Lmna^G609G/+: Max=64 DOUBTS OF THE COPYIST ABOUT THIS PICTURE: Panels C and F: the Ave/Max labels are not printed with a group name. They are assigned to D011 (solid curve) or Con (dashed curve) only by their position beside the curves. / Panel C Ave=14.8, Max=15.5 and panel F Ave=46.7, Max=48 stand beside the dashed Con curve. They are left out because Con is the control group, not a substance. / No unit is printed with the Ave/Max values. Only the axis reads Age (weeks).
# Fig. 4 Oral administration of SLC-D011 suppresses premature aging features. A Gross morphology of SLC-D011-treated (D011) mice at 8 weeks old. Body size of treated mouse was apparently larger than that of the untreated control (Con) mouse. B Oral administration of SLC-D011 increases body weights of Lmna^G609G/G609G mice. Compared with untreated control group, body weight of treated mouse was increased by ~35%, *p < 0.05. C Oral administration of SLC-D011 extends the life span of Lmna^G609G/G609G mouse. SLC-D011 in monoolein-based solution was treated by oral gavage (50 mg/kg, daily) from 5 weeks old. […] E Grip test of Lmna^G609G/+ mice at 41-week-old was performed after administration of SLC-D011 for 6 weeks. The test was repeated 10 times for each mouse (n > 4), **p < 0.001. Data are presented as mean ± SD. F Electrocardiographic analysis of Lmna^G609G/+ mice (untreated: n = 4; SLC-D011: n = 4) and Lmna^+/+ mice (n = 3) after treatment with SLC-D011 for 6 weeks (unpaired t test). Heart rate is shown as beats per minute (bpm). G Dental abnormalities in Lmna^G609G/+ mice (untreated: n = 4; SLC-D011: n = 5) and Lmna^+/+ mice (n = 4). […] Lower incisors of Lmna^G609G transgenic mice grow toward the palate because of malocclusion. Oral administration of SLC-D011 for 6 weeks alleviates dental abnormalities. H Anti-aging effects of single treatment of SLC-D011 or lonafarnib were measured in HGPS patients-derived cells (AG11513, AG03199, AG11498, and AG03198, Coriell Cell Repositories). Single treatment of SLC-D011, compared to lonafarnib, reduced the expression of progerin but induced the expression of H3K9me3 and cyclin B1 in HGPS cells more effectively. HGPS patients-derived cells were treated with SLC-D011 (500 nM) or lonafarnib (500 nM) for 3 days. I Scheme of interaction between lamin A and progerin. SLC-D011 interrupts the interaction between lamin A and progerin through direct binding to the C-terminal region of progerin. […]
smiles,measurement,setting,value
CC1(C)Oc2cc3oc(=O)ccc3cc2C[C@@H]1OC/C=C/c1ccccc1 [SLC-D011],body weight,"IP injection, after week 5",1.154 and 1.077 and 1.156
same,body weight,"IP injection, after week 7",1.385 and 1.462 and 1.337
same,body weight,"IP injection, after week 8",1.538 and 1.333 and 1.357
same,body weight,"IP injection, after week 9",1.462 and 1.333 and 1.317
same,body weight,"IP injection, after week 10",1.385 and 1.265
same,body weight,"IP injection, after week 13",1.385 and 1.231 and 1.182 and 1.115
same,body weight,"IP injection, after week 15",1.231 and 1.077 and 1.083 and 1.008
same,body weight,"IP injection, after week 16",1.231 and 0.9091 and 0.972
same,body weight,"IP injection, after week 17",1.077 and 0.9231 and 0.9091 and 0.8913
same,body weight,"IP injection, column after week 4",1.042
same,body weight,"IP injection, column after week 6",1.231 and 1.247
same,body weight,"IP injection, column after week 11",1.462 and 1.385 and 1.273 and 1.256
same,body weight,"IP injection, column after week 12",1.385 and 1.308 and 1.174
same,body weight,"IP injection, column after week 14",1.308 and 1.154 and 1.143 and 1.067
same,body weight,"IP injection, column after week 18",0.9231 and 0.7137
same,body weight,"IP injection, column after week 19",0.9231 and 0.6058
same,body weight,"IP injection, week 5",1.077 and 1.104
same,body weight,"IP injection, week 6",1.231 and 1.217
same,body weight,"IP injection, week 7",1.308 (2×) and 1.385
same,body weight,"IP injection, week 8",1.538 and 1.367
same,body weight,"IP injection, week 10",1.462 and 1.333 and 1.307
same,body weight,"IP injection, week 11",1.462 and 1.273 and 1.276
same,body weight,"IP injection, week 12",1.385 and 1.273 and 1.206
same,body weight,"IP injection, week 13",1.308 and 1.146
same,body weight,"IP injection, week 15",1.231 and 1.154 and 1.143 and 1.048
same,body weight,"IP injection, week 16",1.154 and 1.077 and 1.083 and 0.895
same,body weight,"IP injection, week 17",1.154 and 0.9231 and 0.9091 and 1 and 0.9262
same,body weight,"IP injection, week 18",1.077 and 0.8462 and 0.9091 and 0.7434
same,body weight,"IP injection, week 19",0.9231 and 0.7692 and 0.75 and 0.6551
same,body weight,"IP injection, week 20",0.8462 and 0.75 and 0.5321
same,body weight,"oral administration, after week 8",1.273 and 1.455 and 1.385 and 1.417 and 1.545 and 1.636 and 1.444
same,body weight,"oral administration, after week 10",1.182 and 1.455 and 1.385 and 1.417 and 1.636 and 1.444
same,body weight,"oral administration, after week 16",1.182 and 1.364 and 1.077 and 1.333 and 1.455 and 1.263 and 1.417 and 1.318
same,body weight,"oral administration, column after week 4",1.091 and 1.077 and 1.083 and 1.182 and 1.098
same,body weight,"oral administration, column after week 6",1.182 and 1.273 and 1.154 and 1.25 and 1.364 and 1.455 and 1.263
same,body weight,"oral administration, column after week 12",1.273 and 1.455 and 1.385 and 1.417 and 1.545 and 1.432
same,body weight,"oral administration, column after week 14",1.273 and 1.455 and 1.308 and 1.333 and 1.263 and 1.417 and 1.37
same,body weight,"oral administration, column after week 18",1 and 1.273 and 1.25 and 1.364 and 1.091 and 1.333 and 1.243
same,body weight,"oral administration, column after week 20",0.9091 and 1.182 and 1.091 and 1.167 and 1.273 and 1 and 1.146
same,body weight,"oral administration, column after week 22",0.8182 and 1 and 0.9091 and 1.083 and 1.091 and 1.182 and 1.01
same,body weight,"oral administration, column after week 24",0.9167 and 0.8182 and 1.091 and 0.6656
same,body weight,"oral administration, column after week 25",0.75 and 0.8182 and 0.5795
same,body weight,"oral administration, week 6",1.091 and 1.182 and 1.077 and 1.167 and 1.273 and 1.364 and 1.176
same,body weight,"oral administration, week 8",1.182 and 1.364 and 1.231 and 1.333 and 1.455 and 1.545 and 1.338
same,body weight,"oral administration, week 10",1.182 and 1.455 and 1.308 and 1.5 and 1.545 and 1.727 and 1.435
same,body weight,"oral administration, week 12",1.273 and 1.455 and 1.308 and 1.417 and 1.636 and 1.436
same,body weight,"oral administration, week 14",1.273 and 1.545 and 1.308 and 1.417 and 1.455 and 1.424
same,body weight,"oral administration, week 16",1.182 and 1.364 and 1.231 and 1.333 and 1.455 and 1.263 and 1.417 and 1.337
same,body weight,"oral administration, week 18",1 and 1.364 and 1.077 and 1.333 and 1.182 and 1.417 and 1.262
same,body weight,"oral administration, week 20",0.9091 and 1.273 and 1.091 and 1.25 and 1.179
same,body weight,"oral administration, week 22",0.9091 and 1.182 and 0.9167 and 1.167 and 1.091 and 1 and 1.273 and 1.09
same,body weight,"oral administration, week 24",0.9091 and 0.8462 and 1.083 and 0.9167 and 1.182 and 0.8182 and 0.8671
same,body weight,"oral administration, week 25",0.8333 and 0.75 and 0.8182 and 0.6439
